In publication PMC4109838 one finds binding data, which are given here for two substances.

Amino acid sequences for entries named in this document (tags omitted). A change or cut given only in a name is not applied to a line headed by its entry.
UniProt O14974: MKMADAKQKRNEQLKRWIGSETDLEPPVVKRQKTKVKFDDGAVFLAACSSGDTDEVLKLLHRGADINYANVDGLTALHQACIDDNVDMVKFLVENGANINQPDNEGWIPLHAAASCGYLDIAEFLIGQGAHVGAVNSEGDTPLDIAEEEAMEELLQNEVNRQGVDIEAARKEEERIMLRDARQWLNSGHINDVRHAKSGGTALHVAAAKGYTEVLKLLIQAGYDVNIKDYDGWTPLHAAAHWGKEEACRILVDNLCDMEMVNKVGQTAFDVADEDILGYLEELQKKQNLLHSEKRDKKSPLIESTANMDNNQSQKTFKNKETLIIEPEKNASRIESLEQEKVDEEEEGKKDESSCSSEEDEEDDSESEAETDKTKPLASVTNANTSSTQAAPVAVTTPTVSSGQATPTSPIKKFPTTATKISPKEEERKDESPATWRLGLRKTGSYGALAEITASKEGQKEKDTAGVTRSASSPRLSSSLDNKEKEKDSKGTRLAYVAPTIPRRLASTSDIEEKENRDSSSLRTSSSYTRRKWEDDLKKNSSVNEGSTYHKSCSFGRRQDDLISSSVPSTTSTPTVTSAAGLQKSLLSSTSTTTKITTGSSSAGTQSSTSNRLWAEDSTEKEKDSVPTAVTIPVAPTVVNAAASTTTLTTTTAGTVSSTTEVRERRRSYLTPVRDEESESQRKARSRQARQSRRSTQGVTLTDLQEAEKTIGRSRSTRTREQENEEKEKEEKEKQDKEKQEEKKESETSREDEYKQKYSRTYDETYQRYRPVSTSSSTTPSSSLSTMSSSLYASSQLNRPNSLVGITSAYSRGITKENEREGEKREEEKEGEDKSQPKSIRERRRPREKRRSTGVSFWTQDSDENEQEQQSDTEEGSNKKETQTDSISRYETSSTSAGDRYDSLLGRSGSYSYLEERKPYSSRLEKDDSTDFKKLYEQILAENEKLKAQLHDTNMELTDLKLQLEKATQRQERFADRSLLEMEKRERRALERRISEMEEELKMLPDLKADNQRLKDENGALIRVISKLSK

Substitutions are numbered along the chain they refer to. No constants are given. Whether binding was seen depends on the method and setting. In cells and extracts the contact can be indirect. Some results given as binding are weak or reduced against the parent protein; the word gives no strength. Tags and fused reporters may be left off the sequences shown.

The target of experiment [1] is T1, HA–NUAK1 (wild type), stably overexpressed in U2OS Flp/In cells (human) (UniProt O60285).
T1 sequence: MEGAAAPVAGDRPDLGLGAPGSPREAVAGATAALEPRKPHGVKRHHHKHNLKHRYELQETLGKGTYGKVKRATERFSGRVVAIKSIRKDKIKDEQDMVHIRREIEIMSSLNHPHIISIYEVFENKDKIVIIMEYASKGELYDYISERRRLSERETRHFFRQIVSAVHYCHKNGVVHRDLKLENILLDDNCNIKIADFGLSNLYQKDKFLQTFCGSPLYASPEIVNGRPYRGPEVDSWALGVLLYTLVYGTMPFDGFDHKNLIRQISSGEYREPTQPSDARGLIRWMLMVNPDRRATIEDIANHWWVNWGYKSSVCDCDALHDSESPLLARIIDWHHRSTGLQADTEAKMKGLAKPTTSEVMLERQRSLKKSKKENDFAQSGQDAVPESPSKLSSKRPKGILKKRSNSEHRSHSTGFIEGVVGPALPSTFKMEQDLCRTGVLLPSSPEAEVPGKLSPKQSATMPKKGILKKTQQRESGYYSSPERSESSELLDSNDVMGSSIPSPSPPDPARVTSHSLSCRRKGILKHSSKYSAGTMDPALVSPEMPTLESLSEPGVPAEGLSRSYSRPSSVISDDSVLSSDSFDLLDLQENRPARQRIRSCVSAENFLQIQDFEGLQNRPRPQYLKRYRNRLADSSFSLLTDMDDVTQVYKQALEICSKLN
Description: co-IP; HA–NUAK1 immunoprecipitated from U2OS cells stably expressing it after treatment of the cells with roscovitine for 1 h, immunoblot. In general terms: In western blotting, separated proteins are transferred to a membrane and probed.

Experiment [2] addresses T1, HA–NUAK1 (wild type), stably overexpressed in U2OS Flp/In cells (human). Description: co-IP; HA–NUAK1 immunoprecipitated from lysate of U2OS Flp/In cells stably overexpressing it, immunoblot; empty-vector cells as negative control; in Figure 4C cells treated with inhibitors (BI2536, GSK461364) for 1 h.
For experiment [3], the target named is T2, HA-tagged NUAK1 WT, transiently expressed in HEK-293 cells (human) (UniProt O60285).
T2 sequence: T1 sequence
Put plainly: co-IP; HA-tagged NUAK1 (WT or mutant) transfected into HEK-293 cells, lysed after 36 h, immunoprecipitated from 1 mg of lysate, immunoblot for endogenous partners.

Experiment [4] has as its target T3, GST-tagged NUAK1 S476A+S480A (human) (UniProt O60285).
T3 sequence: T1 sequence with S476A, S480A
Description: co-IP; GST-tagged kinase (WT or mutant) transfected into HEK-293 cells, lysed after 36 h, GST-tagged protein 'immunoprecipitated' from 5 mg of lysate, immunoblot for endogenous partners.

With “PLK1 (Polo kinase 1), endogenous (from UniProt P53350 1-603)”, the binding entry in experiment [1] is recorded as “no binding (condition: cells treated with roscovitine)”; in experiment [2], “binds”; in experiment [3], “binds”.
For “PP1β^MYPT1 myosin phosphatase complex (from UniProt O14974 1-1030; P62140 1-327)”, the binding entry in experiment [4] is “binds”.
